Results taken from USRE36291E, “Reaction product of nitrogen bases and phosphate esters as corrosion inhibitors” (Baker Hughes Incorporated, priority 1995, dated 1999).

What was measured:
[1] = Kettle test for corrosion inhibitor efficacy, sweet; conditions: 24 hours, stirring, CO2, room temperature
[2] = Kettle test for corrosion inhibitor efficacy, sour; conditions: 24 hours, CO2, 50 ppm H2S, room temperature

| SMILES | Sweet corrosion rate ([1]; active concentration 150 ppm) | Sour corrosion rate ([2]; active concentration 150 ppm) | Sweet corrosion rate ([1]; active concentration 250 ppm) | Sour corrosion rate ([2]; active concentration 250 ppm) |
| --- | --- | --- | --- | --- |
| OCC(CO)(CO)CO [Composition 6] | 27 MPY | 23 MPY | – | – |
| NC(N)=S [Composition 11] | – | – | 28 MPY | 24 MPY |
| O=C1NS(=O)(=O)c2ccccc21 [Composition 15] | – | – | 49 MPY | 59 MPY |
| O=C(O)c1cc(O)c(O)c(O)c1 [Composition 14] | – | – | 61 MPY | 12 MPY |
